PubChem BioAssay AID1259308, NCATS | 2017

- Aim: 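Genes whose loss raises luciferase production in HEK293 cells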 (primary screen)
- Cells: human HEK293 embryonic kidney cells stably expressing firefly luciferase (HEK-CMV-Luc2-Hygro)
- Knock-down reagent: single siRNA against human genes, 0.8 pmol siRNA per well
- Duration: 72 h
- Measurement: 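Luciferase light (ONE-Glo) measured on one replicate plate set and viability (CellTiter-Glo) on the other, scaled to a negative control siRNA, with robust z-scores and luciferase per cell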
- Reading the numbers: total luciferase, z-score and total luciferase, % of control: higher = more reporter protein produced
- Rule for the call: 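Active when the median/MAD z-score for overall luciferase is greater than 3; a gene was taken forward for validation with new siRNAs if at least two of its three siRNAs passed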
- Calls: active = raised luciferase; inactive = no rise
The whole screen tested about 59,000 reagents; this is a random part of them. About 1,510 of them (2.6%) count as active. 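Calls use total luciferase alone and ignore viability, so some active siRNAs may act by altering cell number.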 The numbers tell different reagents against one gene apart. Not all columns of the deposit are shown.

The opening 3 records, ahead of the listing:
{"Gene": "MSRA (methionine sulfoxide reductase A)", "reagent": 1, "total luciferase, z-score": -0.106, "total luciferase, % of control": 79.8, "outcome": "inactive"}
{"Gene": "MSRA (methionine sulfoxide reductase A)", "reagent": 2, "total luciferase, z-score": 0.181, "total luciferase, % of control": 85.5, "outcome": "inactive"}
{"Gene": "MSRA (methionine sulfoxide reductase A)", "reagent": 3, "total luciferase, z-score": 0.513, "total luciferase, % of control": 92.1, "outcome": "inactive"}

The list itself, from the first entry:
{"Gene": "MSRA (methionine sulfoxide reductase A)", "reagent": 1, "total luciferase, z-score": -0.106, "total luciferase, % of control": 79.8, "outcome": "inactive"}
{"Gene": "MSRA (methionine sulfoxide reductase A)", "reagent": 2, "total luciferase, z-score": 0.181, "total luciferase, % of control": 85.5, "outcome": "inactive"}
{"Gene": "MSRA (methionine sulfoxide reductase A)", "reagent": 3, "total luciferase, z-score": 0.513, "total luciferase, % of control": 92.1, "outcome": "inactive"}
{"Gene": "PLD3 (phospholipase D family member 3)", "reagent": 1, "total luciferase, z-score": -0.956, "total luciferase, % of control": 62.9, "outcome": "inactive"}
{"Gene": "PLD3 (phospholipase D family member 3)", "reagent": 2, "total luciferase, z-score": -1.23, "total luciferase, % of control": 57.3, "outcome": "inactive"}
{"Gene": "PLD3 (phospholipase D family member 3)", "reagent": 3, "total luciferase, z-score": 0.174, "total luciferase, % of control": 85.3, "outcome": "inactive"}
{"Gene": "LYAR (Ly1 antibody reactive)", "reagent": 1, "total luciferase, z-score": -1.33, "total luciferase, % of control": 55.5, "outcome": "inactive"}
{"Gene": "LYAR (Ly1 antibody reactive)", "reagent": 2, "total luciferase, z-score": 0.916, "total luciferase, % of control": 100, "outcome": "inactive"}
{"Gene": "LYAR (Ly1 antibody reactive)", "reagent": 3, "total luciferase, z-score": -0.67, "total luciferase, % of control": 68.6, "outcome": "inactive"}
{"Gene": "FGFBP2 (fibroblast growth factor binding protein 2)", "reagent": 1, "total luciferase, z-score": 1.92, "total luciferase, % of control": 120, "outcome": "inactive"}
{"Gene": "FGFBP2 (fibroblast growth factor binding protein 2)", "reagent": 2, "total luciferase, z-score": 3.53, "total luciferase, % of control": 152, "outcome": "active"}
{"Gene": "FGFBP2 (fibroblast growth factor binding protein 2)", "reagent": 3, "total luciferase, z-score": -1.23, "total luciferase, % of control": 57.3, "outcome": "inactive"}
{"Gene": "RNF6 (ring finger protein 6)", "reagent": 1, "total luciferase, z-score": -1.55, "total luciferase, % of control": 51, "outcome": "inactive"}
{"Gene": "RNF6 (ring finger protein 6)", "reagent": 2, "total luciferase, z-score": 0.873, "total luciferase, % of control": 99.3, "outcome": "inactive"}
{"Gene": "RNF6 (ring finger protein 6)", "reagent": 3, "total luciferase, z-score": 0.737, "total luciferase, % of control": 96.5, "outcome": "inactive"}
{"Gene": "SYNPO2L (synaptopodin 2 like)", "reagent": 1, "total luciferase, z-score": 0.152, "total luciferase, % of control": 84.9, "outcome": "inactive"}
{"Gene": "SYNPO2L (synaptopodin 2 like)", "reagent": 2, "total luciferase, z-score": -0.434, "total luciferase, % of control": 73.3, "outcome": "inactive"}
{"Gene": "SYNPO2L (synaptopodin 2 like)", "reagent": 3, "total luciferase, z-score": -0.84, "total luciferase, % of control": 65.2, "outcome": "inactive"}
{"Gene": "CD69 (CD69 molecule)", "reagent": 1, "total luciferase, z-score": -0.234, "total luciferase, % of control": 77.2, "outcome": "inactive"}
{"Gene": "CD69 (CD69 molecule)", "reagent": 2, "total luciferase, z-score": 2.31, "total luciferase, % of control": 128, "outcome": "inactive"}
{"Gene": "CD69 (CD69 molecule)", "reagent": 3, "total luciferase, z-score": 0.138, "total luciferase, % of control": 84.6, "outcome": "inactive"}
{"Gene": "ZBTB34 (zinc finger and BTB domain containing 34)", "reagent": 1, "total luciferase, z-score": -0.284, "total luciferase, % of control": 76.2, "outcome": "inactive"}
{"Gene": "ZBTB34 (zinc finger and BTB domain containing 34)", "reagent": 2, "total luciferase, z-score": 0.25, "total luciferase, % of control": 86.9, "outcome": "inactive"}
{"Gene": "ZBTB34 (zinc finger and BTB domain containing 34)", "reagent": 3, "total luciferase, z-score": 1.06, "total luciferase, % of control": 103, "outcome": "inactive"}
{"Gene": "NFE2L1 (NFE2 like bZIP transcription factor 1)", "reagent": 1, "total luciferase, z-score": -1.32, "total luciferase, % of control": 55.7, "outcome": "inactive"}
{"Gene": "NFE2L1 (NFE2 like bZIP transcription factor 1)", "reagent": 2, "total luciferase, z-score": 0.434, "total luciferase, % of control": 90.5, "outcome": "inactive"}
{"Gene": "NFE2L1 (NFE2 like bZIP transcription factor 1)", "reagent": 3, "total luciferase, z-score": 0.638, "total luciferase, % of control": 94.6, "outcome": "inactive"}
{"Gene": "LARP1BP3 (LARP1B pseudogene 3)", "reagent": 1, "total luciferase, z-score": 2.78, "total luciferase, % of control": 137, "outcome": "inactive"}
{"Gene": "LARP1BP3 (LARP1B pseudogene 3)", "reagent": 2, "total luciferase, z-score": 2.75, "total luciferase, % of control": 137, "outcome": "inactive"}
{"Gene": "LARP1BP3 (LARP1B pseudogene 3)", "reagent": 3, "total luciferase, z-score": -1.38, "total luciferase, % of control": 54.5, "outcome": "inactive"}
{"Gene": "FAM163A (family with sequence similarity 163 member A)", "reagent": 1, "total luciferase, z-score": 1.2, "total luciferase, % of control": 106, "outcome": "inactive"}
{"Gene": "FAM163A (family with sequence similarity 163 member A)", "reagent": 2, "total luciferase, z-score": 1.79, "total luciferase, % of control": 118, "outcome": "inactive"}
{"Gene": "FAM163A (family with sequence similarity 163 member A)", "reagent": 3, "total luciferase, z-score": -0.202, "total luciferase, % of control": 77.9, "outcome": "inactive"}
{"Gene": "CHRDL2 (chordin like 2)", "reagent": 1, "total luciferase, z-score": -0.761, "total luciferase, % of control": 66.8, "outcome": "inactive"}
{"Gene": "CHRDL2 (chordin like 2)", "reagent": 2, "total luciferase, z-score": 1.34, "total luciferase, % of control": 109, "outcome": "inactive"}
{"Gene": "CHRDL2 (chordin like 2)", "reagent": 3, "total luciferase, z-score": 1.24, "total luciferase, % of control": 107, "outcome": "inactive"}
{"Gene": "TOP6BL (TOP6B like initiator of meiotic double strand breaks)", "reagent": 1, "total luciferase, z-score": 0.512, "total luciferase, % of control": 92.1, "outcome": "inactive"}
{"Gene": "TOP6BL (TOP6B like initiator of meiotic double strand breaks)", "reagent": 2, "total luciferase, z-score": -0.785, "total luciferase, % of control": 66.3, "outcome": "inactive"}
{"Gene": "TOP6BL (TOP6B like initiator of meiotic double strand breaks)", "reagent": 3, "total luciferase, z-score": -0.882, "total luciferase, % of control": 64.3, "outcome": "inactive"}
{"Gene": "CASKIN1 (CASK interacting protein 1)", "reagent": 1, "total luciferase, z-score": 0.319, "total luciferase, % of control": 88.2, "outcome": "inactive"}
{"Gene": "CASKIN1 (CASK interacting protein 1)", "reagent": 2, "total luciferase, z-score": 0.837, "total luciferase, % of control": 98.5, "outcome": "inactive"}
{"Gene": "CASKIN1 (CASK interacting protein 1)", "reagent": 3, "total luciferase, z-score": 0.119, "total luciferase, % of control": 84.3, "outcome": "inactive"}
